Values from PubChem BioAssay AID1224830 (NIAID, 2016).

- Test: 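Host factors that control LPS-induced TNF expression in human macrophages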 (primary screen)
- System: human THP-1 monocytic leukaemia cells, TNF dual-luciferase reporter clone, PMA-differentiated to macrophage-like cells
- Reagents: siRNA pool against human genes, 50 nM
- Timing: LPS for 4 h, given about 3 days after siRNA transfection
- Challenge: bacterial LPS (TLR4 ligand), 10 ng/ml
- Read-out: 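TNF firefly reporter luminescence divided by renilla, normalised to the plate median, then turned into a robust z-score for each replicate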
- Scale: TNF reporter robust z-score: higher = stronger TNF reporter response to LPS
- Active means: 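Each well counts as active if its z-score is over 2.8 or under -1.5; controls are left without a call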
Shown is an unselected part of about 18,000 reagents. Of all reagents, about 2,900 (16%) got an active call. 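Calls are made per well; low scores hint the gene aids the LPS response, high scores that it dampens it.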 Unmarked entries are inactive. Repeated entries: four replicate wells of each siRNA pool. Reagent sequences are not shown.

CELA3B gave TNF reporter robust z-score -0.07. CELA3B gave TNF reporter robust z-score 0.74. Against CELA3B the deposit lists TNF reporter robust z-score 1.14. After knock-down of CELA3B, the record shows TNF reporter robust z-score 0.16. Silencing of FAM124A gave: TNF reporter robust z-score 0.36. Silencing of FAM124A came out at: TNF reporter robust z-score 1.17.

Depletion of FAM124A gave: TNF reporter robust z-score 0.37. Silencing of FAM124A came out at: TNF reporter robust z-score 0.29.

Sorted by “TNF reporter robust z-score” (highest first): some entries from above
CELA3B → TNF reporter robust z-score: 1.14
CELA3B → TNF reporter robust z-score: 0.74
CELA3B → TNF reporter robust z-score: -0.07

More results follow.
UBA1 showed TNF reporter robust z-score 2.08. After knock-down of UBA1, the screen gave TNF reporter robust z-score 1.02. Knock-down of UBA1 gave: TNF reporter robust z-score 1.29. Silencing of UBA1 gave: TNF reporter robust z-score 0.97. Knock-down of CTH came out at: TNF reporter robust z-score 0.11. CTH gave TNF reporter robust z-score 0.26.

CTH gave TNF reporter robust z-score 0.22. For CTH the deposit lists TNF reporter robust z-score -0.61. C8orf74 showed TNF reporter robust z-score -1.91 (active). After knock-down of C8orf74, the screen gave TNF reporter robust z-score -1.83 (active). After knock-down of C8orf74, the record shows TNF reporter robust z-score -2.06 (active). With knock-down of C8orf74 the results were TNF reporter robust z-score -1.97 (active).
